Measured values as given in patent US6747063B2, “Combination therapy for treatment of erectile dysfunction” (Cellegy Pharmaceuticals, Inc., priority 1996, dated 2004).
At least one structure is not confirmed: it was looked up by name or label, or the drawing left a doubt.

System: penile erection in patients with previously diagnosed ED
Assay: Erectile response (Rigiscan tumescence and rigidity) after intracavernous injection, patients with no prior PGE1
Format: in vivo, human
Details: Phase 2; 10 patients with full data; 5+15 μg PGE1 alone IC

## CCCCC[C@H](O)/C=C/[C@H]1[C@H](O)CC(=O)[C@@H]1CCCCCCC(=O)O [PGE1, prostaglandin E1]
  patients who developed full responses: 3 of these 10
